Data published in article PMC7555550.
These are yes or no findings as the source states them, for the method shown. In cells and extracts the contact can be indirect. Binding calls can cover weak binding; strength is not graded here. Tags and fused reporters may be left off the sequences shown.

Sequences of proteins named here, by UniProt entry; tags and fusion partners are left off. A change or cut given only in a name is not applied to a line headed by its entry.
UniProt Q8IXL6: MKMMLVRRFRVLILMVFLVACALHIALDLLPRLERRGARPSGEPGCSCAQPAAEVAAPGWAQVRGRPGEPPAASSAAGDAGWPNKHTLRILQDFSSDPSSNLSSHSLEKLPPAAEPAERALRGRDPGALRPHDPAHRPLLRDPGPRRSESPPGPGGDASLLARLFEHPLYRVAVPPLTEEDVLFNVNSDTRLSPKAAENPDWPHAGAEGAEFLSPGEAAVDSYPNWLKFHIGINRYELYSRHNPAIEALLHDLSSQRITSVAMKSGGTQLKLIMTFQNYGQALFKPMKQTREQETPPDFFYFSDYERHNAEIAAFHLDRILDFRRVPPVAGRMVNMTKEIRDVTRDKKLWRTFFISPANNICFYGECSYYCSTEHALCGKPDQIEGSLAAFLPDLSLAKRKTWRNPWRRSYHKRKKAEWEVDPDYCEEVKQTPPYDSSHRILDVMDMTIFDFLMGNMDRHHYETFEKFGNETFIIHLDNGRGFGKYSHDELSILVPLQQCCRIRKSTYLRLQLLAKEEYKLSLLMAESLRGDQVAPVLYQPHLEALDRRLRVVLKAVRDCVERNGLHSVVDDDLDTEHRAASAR

Biological target: FAM20C-P328S-V5/His (human) (UniProt Q8IXL6)
Test: co-IP; HEK 293 cells transiently co-transfected; cell lysates 24 h after transfection immunoprecipitated with anti-V5 antibody, Western blot with anti-HA antibody

binding: binds
B1: mouse Periostin with C-terminal HA tag (pCAGI-puro delta Periostin (b-)-WT-HA) (protein, UniProt Q62009-2 24-811)
chain: NSYYDKVLAHSRIRGRDQGPNVCALQQILGTKKKYFSSCKNWYQGAICGKKTTVLYECCPGYMRMEGMKGCPAVMPIDHVYGTLGIVGATTTQHYSDVSKLREEIEGKGSYTYFAPSNEAWENLDSDIRRGLENNVNVELLNALHSHMVNKRMLTKDLKHGMVIPSMYNNLGLFINHYPNGVVTVNCARVIHGNQIATNGVVHVIDRVLTQIGTSIQDFLEAEDDLSSFRAAAITSDLLESLGRDGHFTLFAPTNEAFEKLPRGVLERIMGDKVASEALMKYHILNTLQCSEAITGGAVFETMEGNTIEIGCEGDSISINGIKMVNKKDIVTKNGVIHLIDEVLIPDSAKQVIELAGKQQTTFTDLVAQLGLASSLKPDGEYTLLAPVNNAFSDDTLSMDQRLLKLILQNHILKVKVGLSDLYNGQILETIGGKQLRVFVYRTAICIENSCMVRGSKQGRNGAIHIFREIIQPAEKSLHDKLRQDKRFSIFLSLLEAADLKDLLTQPGDWTLFAPTNDAFKGMTSEERELLIGDKNALQNIILYHLTPGVYIGKGFEPGVTNILKTTQGSKIYLKGVNETLLVNELKSKESDIMTTNGVIHVVDKLLYPADIPVGNDQLLELLNKLIKYIQIKFVRGSTFKEIPMTVYRPAMTKIQIEGDPDFRLIKEGETVTEVIHGEPVIKKYTKIIDGVPVEITEKQTREERIITGPEIKYTRISTGGGETGETLQKFLQKEVSKVTKFIEGGDGHLFEDEEIKRLLQGDTPAKKIPANKRVQGPRRRSREGRSQ
